Earlier results in patent US12312627B2, “Microorganisms and methods for production of 4-hydroxybutyrate, 1,4-butanediol and related compounds” (priority 2013, dated 2025).
At least one structure is not confirmed: it was looked up by name or label, or the drawing left a doubt.

Test system: aminotransferase from Leishmania mexicana
Conditions: enzyme expressed in E. coli; cited from earlier work

N[C@@H](CC(=O)O)C(=O)O [aspartate]
activity (considered 100% on tyrosine): 30%
